Test [1] deals with Myc/His-tagged MRGBP (MRG-binding protein, C20orf20), wild type (human) (UniProt Q9NV56). In words: co-IP; immunoprecipitation experiment using BRD8 isoform 2 expression plasmid (Supplementary Figure 1A); cells and antibodies not given.
Test [2] has as its target endogenous MRGBP (human (endogenous in SW480)) (UniProt Q9NV56). In words: co-IP; endogenous proteins; nuclear extract from SW480 cells with anti-MRGBP or anti-p120 (BRD8) antibody, Protein G-Sepharose overnight at 4°C; normal rabbit IgG as negative control.

Amino acid sequences for entries named in this document (tags omitted).
UniProt Q9NV56: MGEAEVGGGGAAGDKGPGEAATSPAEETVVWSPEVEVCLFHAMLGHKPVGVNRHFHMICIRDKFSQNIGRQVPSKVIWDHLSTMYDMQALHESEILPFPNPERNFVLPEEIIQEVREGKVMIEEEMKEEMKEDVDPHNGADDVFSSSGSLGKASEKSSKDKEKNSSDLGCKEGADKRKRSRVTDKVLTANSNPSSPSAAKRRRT
UniProt Q9H0E9: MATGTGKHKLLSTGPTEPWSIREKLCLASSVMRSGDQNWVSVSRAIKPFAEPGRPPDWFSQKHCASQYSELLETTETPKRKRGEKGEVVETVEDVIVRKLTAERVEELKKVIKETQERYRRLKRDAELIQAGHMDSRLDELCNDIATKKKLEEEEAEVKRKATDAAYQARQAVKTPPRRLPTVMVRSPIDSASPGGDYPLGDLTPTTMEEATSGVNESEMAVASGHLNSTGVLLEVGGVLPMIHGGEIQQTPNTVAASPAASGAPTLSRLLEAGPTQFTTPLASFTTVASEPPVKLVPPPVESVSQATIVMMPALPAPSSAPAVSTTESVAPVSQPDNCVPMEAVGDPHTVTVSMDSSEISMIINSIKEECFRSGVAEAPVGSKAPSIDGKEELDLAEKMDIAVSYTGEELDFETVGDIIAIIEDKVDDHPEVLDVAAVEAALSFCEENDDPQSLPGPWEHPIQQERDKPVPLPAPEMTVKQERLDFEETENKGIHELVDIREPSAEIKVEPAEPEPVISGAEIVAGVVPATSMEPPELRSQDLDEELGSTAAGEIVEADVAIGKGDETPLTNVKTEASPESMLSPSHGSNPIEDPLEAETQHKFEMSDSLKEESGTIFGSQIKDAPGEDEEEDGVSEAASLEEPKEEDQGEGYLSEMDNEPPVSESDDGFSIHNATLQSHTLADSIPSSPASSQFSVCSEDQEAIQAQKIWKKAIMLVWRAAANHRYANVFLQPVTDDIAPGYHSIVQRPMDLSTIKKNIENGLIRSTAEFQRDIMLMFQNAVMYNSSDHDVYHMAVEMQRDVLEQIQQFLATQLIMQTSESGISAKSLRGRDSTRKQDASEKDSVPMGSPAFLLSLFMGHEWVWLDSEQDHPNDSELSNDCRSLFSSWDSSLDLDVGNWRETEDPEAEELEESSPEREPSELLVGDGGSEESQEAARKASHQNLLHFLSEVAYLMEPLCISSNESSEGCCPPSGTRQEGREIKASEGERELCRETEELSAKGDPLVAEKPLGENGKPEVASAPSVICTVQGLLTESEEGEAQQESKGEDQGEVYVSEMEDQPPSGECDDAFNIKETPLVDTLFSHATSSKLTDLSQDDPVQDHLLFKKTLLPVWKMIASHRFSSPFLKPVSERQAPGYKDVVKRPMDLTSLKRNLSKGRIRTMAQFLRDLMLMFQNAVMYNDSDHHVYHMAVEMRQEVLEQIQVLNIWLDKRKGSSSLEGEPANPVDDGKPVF

No constants are given. Whether binding was seen depends on the method and setting. Binding seen in cells or lysates may run through a third protein. Some entries that bind do so weakly or less than the wild type.

For “BRD8 isoform 2 (from UniProt Q9H0E9 1-1235)”, the binding entry in test [1] was “binds”.

On to “endogenous BRD8 (from UniProt Q9H0E9 1-1235)”, for which the binding entry in test [2] is “binds”.

The record behind these values is PMC2816663.
